# Laboratory results taken from publication PMC7909640.
# By UniProt entry, the sequences of proteins in these tests, tags left out.
# UniProt S8G6L4: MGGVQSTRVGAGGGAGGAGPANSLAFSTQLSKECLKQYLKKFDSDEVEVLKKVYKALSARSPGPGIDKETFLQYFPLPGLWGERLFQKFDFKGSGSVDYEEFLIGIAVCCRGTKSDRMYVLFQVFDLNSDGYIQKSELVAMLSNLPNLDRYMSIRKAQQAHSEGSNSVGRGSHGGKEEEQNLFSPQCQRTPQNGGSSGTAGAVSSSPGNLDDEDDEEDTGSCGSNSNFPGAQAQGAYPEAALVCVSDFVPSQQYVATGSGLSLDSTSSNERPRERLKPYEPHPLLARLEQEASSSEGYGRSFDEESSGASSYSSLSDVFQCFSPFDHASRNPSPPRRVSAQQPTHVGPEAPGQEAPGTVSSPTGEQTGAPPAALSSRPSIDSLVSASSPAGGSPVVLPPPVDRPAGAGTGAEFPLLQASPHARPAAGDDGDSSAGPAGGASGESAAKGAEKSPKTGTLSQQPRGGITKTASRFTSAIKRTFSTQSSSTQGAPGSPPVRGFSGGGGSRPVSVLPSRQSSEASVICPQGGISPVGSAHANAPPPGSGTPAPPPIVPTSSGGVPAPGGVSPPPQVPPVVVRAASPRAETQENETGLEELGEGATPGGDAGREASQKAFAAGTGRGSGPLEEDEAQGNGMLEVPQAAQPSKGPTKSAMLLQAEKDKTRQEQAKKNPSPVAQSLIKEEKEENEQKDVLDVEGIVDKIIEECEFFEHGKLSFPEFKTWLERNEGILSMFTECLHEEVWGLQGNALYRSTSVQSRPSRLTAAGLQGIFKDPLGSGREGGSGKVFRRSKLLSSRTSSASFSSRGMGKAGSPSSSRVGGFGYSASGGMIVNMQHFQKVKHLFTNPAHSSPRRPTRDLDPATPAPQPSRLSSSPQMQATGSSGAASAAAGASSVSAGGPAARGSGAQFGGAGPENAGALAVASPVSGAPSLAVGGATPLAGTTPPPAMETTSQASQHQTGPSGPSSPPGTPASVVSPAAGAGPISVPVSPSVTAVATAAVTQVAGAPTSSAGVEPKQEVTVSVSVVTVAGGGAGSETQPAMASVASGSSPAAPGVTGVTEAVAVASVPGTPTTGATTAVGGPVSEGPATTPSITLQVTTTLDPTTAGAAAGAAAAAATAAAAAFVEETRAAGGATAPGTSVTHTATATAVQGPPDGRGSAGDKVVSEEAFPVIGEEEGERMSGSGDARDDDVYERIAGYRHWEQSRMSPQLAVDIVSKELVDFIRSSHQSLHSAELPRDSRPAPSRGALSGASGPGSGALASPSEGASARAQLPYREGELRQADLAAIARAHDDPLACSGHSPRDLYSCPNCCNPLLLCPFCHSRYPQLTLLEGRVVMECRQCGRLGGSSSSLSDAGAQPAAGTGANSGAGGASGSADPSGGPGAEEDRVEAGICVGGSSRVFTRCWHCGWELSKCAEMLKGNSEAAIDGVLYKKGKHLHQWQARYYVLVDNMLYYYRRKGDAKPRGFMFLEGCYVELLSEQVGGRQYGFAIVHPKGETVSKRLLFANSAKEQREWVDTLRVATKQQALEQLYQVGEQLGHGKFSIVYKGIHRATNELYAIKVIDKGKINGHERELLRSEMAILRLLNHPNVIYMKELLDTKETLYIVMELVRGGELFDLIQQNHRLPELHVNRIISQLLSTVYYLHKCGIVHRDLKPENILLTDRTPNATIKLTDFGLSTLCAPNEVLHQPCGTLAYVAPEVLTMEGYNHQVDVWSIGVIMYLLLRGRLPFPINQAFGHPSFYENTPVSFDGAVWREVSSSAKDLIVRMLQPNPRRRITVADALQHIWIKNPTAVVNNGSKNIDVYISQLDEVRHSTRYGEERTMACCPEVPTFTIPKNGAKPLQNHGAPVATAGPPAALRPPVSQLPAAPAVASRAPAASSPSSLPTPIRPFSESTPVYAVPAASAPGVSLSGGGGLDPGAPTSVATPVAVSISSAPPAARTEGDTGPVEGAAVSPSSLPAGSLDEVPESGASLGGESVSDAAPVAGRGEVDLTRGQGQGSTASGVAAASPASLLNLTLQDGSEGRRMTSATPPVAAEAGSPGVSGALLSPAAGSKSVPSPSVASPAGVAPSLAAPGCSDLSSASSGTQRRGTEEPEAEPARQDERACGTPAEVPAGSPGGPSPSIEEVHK
# UniProt A0A125YY17: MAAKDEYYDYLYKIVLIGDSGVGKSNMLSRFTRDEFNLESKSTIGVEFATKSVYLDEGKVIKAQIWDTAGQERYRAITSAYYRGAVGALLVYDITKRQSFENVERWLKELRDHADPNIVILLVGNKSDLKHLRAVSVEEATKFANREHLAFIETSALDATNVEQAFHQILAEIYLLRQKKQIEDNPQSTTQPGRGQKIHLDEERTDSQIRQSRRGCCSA
# These are yes or no findings as the source states them, for the method shown. In cells and extracts the contact can be indirect. Some binding calls cover weakened binding; strength is not graded here.
# Legend:
# [1] = target: TgCDPK7-HA (Toxoplasma gondii Calcium Dependent Protein Kinase 7, 3xHA at the C-terminus) (Toxoplasma gondii) (UniProt S8G6L4); assay: co-IP; T. gondii parasites lysed by ultrasonication in RIPA buffer; lysate with anti-HA antibody 12 h, Protein A/G agarose 6 h at 4°C, washed with RIPA; Western blot with anti-myc; Shield-1 present; ΔKu80 parasites as negative control
# [2] = target: TgGPAT-myc (Toxoplasma gondii Glycerol-3-phosphate acyl transferase with a myc tag after residue 256) (Toxoplasma gondii); assay: co-IP; T. gondii parasites lysed by ultrasonication in RIPA buffer; lysate with mouse anti-myc antibody 12 h, Protein A/G agarose 6 h at 4°C, washed with RIPA; Western blot with anti-HA; ΔKu80 parasites as negative control
# [3] = target: DD-Myc-TgRab11a (Toxoplasma gondii); assay: as above
Substance,binding [1],binding [2],binding [3]
DD-Myc-TgRab11a (from UniProt A0A125YY17 1-219),binds,–,–
"TgCDPK7-HA (Toxoplasma gondii Calcium Dependent Protein Kinase 7, 3xHA at the C-terminus) (from UniProt S8G6L4 1-2133) (enzyme)",–,binds,binds
